Source: publication PMC4546648

What was measured:
[1] = molecular target: T1, S-tagged PLCγ1 R586L (UniProt P19174); experiment: co-IP; HEK293T co-transfected; lysed in IP buffer (150 mM NaCl, 25 mM tris HCl pH 7.6, 1 mM EDTA, 1% glycerol, 0.2% NP-40); S-tagged construct captured on S protein agarose beads overnight at 4°C; western blot
T1 sequence: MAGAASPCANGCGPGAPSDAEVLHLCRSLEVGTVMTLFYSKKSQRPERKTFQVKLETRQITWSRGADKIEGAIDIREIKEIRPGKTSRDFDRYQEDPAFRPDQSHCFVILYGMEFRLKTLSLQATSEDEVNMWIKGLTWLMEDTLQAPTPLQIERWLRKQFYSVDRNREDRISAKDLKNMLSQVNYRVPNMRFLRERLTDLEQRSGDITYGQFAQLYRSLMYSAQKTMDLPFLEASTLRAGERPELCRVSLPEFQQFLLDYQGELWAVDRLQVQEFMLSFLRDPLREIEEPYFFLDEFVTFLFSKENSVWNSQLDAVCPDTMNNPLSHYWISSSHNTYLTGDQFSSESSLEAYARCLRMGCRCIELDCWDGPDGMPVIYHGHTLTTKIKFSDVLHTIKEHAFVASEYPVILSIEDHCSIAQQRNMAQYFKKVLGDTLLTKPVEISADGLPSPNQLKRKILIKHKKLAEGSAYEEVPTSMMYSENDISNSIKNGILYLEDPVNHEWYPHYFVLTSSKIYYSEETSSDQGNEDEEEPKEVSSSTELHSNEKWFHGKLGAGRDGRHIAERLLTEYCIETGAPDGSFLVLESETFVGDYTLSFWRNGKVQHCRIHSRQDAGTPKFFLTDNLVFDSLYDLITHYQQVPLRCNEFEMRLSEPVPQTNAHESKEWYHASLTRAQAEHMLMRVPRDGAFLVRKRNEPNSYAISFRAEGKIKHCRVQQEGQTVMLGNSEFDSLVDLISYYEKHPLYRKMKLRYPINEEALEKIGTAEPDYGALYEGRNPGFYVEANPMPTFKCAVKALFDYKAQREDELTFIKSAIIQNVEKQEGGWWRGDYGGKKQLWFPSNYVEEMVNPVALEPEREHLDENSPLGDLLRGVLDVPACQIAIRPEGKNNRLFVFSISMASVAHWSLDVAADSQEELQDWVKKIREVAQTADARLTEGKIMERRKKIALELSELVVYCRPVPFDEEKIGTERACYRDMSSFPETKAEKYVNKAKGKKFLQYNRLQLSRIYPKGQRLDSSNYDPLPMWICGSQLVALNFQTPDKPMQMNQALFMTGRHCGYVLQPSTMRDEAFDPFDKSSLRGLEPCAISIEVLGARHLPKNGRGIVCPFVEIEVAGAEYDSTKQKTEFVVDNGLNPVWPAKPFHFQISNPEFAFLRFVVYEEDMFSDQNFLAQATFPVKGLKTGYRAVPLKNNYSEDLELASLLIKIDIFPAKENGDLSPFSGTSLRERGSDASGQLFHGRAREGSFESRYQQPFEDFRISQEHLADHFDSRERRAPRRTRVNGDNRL

[2] = molecular target: T2, S-tagged PLCγ1 R694L (UniProt P19174); experiment: as above
T2 sequence: T1 sequence with L586R, R694L

With K15M wt the binding [1] was “binds” and the binding [2] was “binds”.

Changes are numbered by the printed parent chain. These are yes or no findings as the source states them, for the method shown. In cells and extracts the contact can be indirect. Binding calls can cover weak binding; strength is not graded here. Tags and fused reporters may be left off the sequences shown.
